1 molecule from patent US20250002470A1, “NITROGEN-CONTAINING COMPOUND, PREPARATION METHOD THEREFOR AND APPLICATION THEREOF” (ZHEJIANG AIXPLORER BIOTECH CO., LTD., priority 2021, published 2025) can be followed below.

This data set can be described thus: In vivo pharmacokinetic evaluation in mice (IV and PO). To be noted: mouse, CD-1 mice. As for the experimental part: CD-1 mice, after fasting overnight (free drinking), are divided into tail vein (IV) and gavage administration (PO) groups. The tail vein administration group collected 0.1 mL of blood from the orbital venous plexus before administration and 5 minutes, 15 minutes, 0.5 hours, 1 hour, 2 hours, 4 hours, 8 hours, 12 hours, and 24 hours after administration, and sample centrifugation at 4° C. for 5 minutes, and stored at −70° C. for testing. […] The plasma parent drug concentration was determined by LC-MS/MS.

The term AUC denotes the area under the concentration-time curve, a measure of exposure. Higher therefore signals high exposure. The half-life is the time in which the quantity being followed falls by half. High values mean slow decline, low ones rapid decline. One may read the Cmax as the peak of the concentration-time curve. In turn, `Cc1c(N[C@@H]2CCCC[C@H]2O)nnc(-c2ccc(C(F)(F)F)cc2O)c1C` [Comparison 4] had a clearance (in vivo, IV, 3 mg/kg) of 40.5 mL/min/kg. Moreover, under “plasma, IV, 3 mg/kg”, the AUC stood at 1590 ng·h/mL and the half-life was 286 min. Besides, for the setting “plasma, IV, 3 mg/kg, read-out: Vss”, the Vd amounted to 5.89 L/kg. Under “plasma, PO, 20 mg/kg”, this molecule showed an exposure (AUC) of 5210 ng·h/mL, a maximum concentration (Cmax) of 1710 ng/mL and a half-life of 177 min.
